“And” between values parts separate entries of the source, which are not always exact repeats. Equal values may be shown once. The whole screen tested about 320,000 compounds, of which about 2,100 (0.66%) were called active. The inconclusive results got no clear call from the source; some entries with a clear call stand among them for comparison. The call rests on the fitted dose curve; in most records, active means well fitted inhibition curve with a large enough effect in the signal ratio, with a control signal flat (not every such curve was filed as active); inconclusive means small, poorly fitted or top-dose-only effect, or effect the other way, or a change in a side signal; inactive means flat fitted curve, though single readings scatter; the % refers to the signal ratio. A potency beside an inconclusive call is a rough fit, not a confirmed value.
Assay: qHTS Assay for Lipid Storage Modulators in Drosophila S3 Cells
Conditions: BODIPY lipid droplet fluorescence, 18-24 h, cells fed with added oleic acid; lipid storage change, negative = inhibition: at 46.1 µM (top of the series) unless noted
In short: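 Laser-scanning cytometry quantifies lipid droplet accumulation (500–530 nm total intensity; droplet/cell object ratio) in oleic acid-fed (400 uM added) Drosophila S3 cells treated with a concentration series. 20 uM Triacsin C defined 100% inhibition.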
On the % scale 0 is the no-effect control and ±100 the full control effect; potency means the concentration at half of the fitted maximal effect.

Row | Structure (SMILES) | Potency | lipid storage change, negative = inhibition
1 | COc1ccc(NC(=O)c2cc(S(=O)(=O)N3CCOCC3)ccc2N2CCOCC2)cc1 | inconclusive: 8.2 µM [activator, partial curve] | –
2 | CCCCn1c(SCc2cc(=O)[nH]c3ccccc23)nc2c1c(=O)n(C)c(=O)n2C | inconclusive: 1.3 µM [activator, full curve] | –
3 | CC1=C(C(=O)OC2CCCC2)C(c2coc3ccc(C)cc3c2=O)C2=C(CCCC2=O)N1 (stereo unspecified) | inconclusive: 6.51 µM [cytotoxic, single point] | –
4 | O=C(COC(=O)c1c2c(nc3ccccc13)/C(=C\c1cccs1)CCC2)Nc1ccccc1Cl | active: 0.58 µM | –
5 | CCN(CC)S(=O)(=O)c1ccc(N2CCOCC2)c(NC(=O)C23CC4CC(CC(Cl)(C4)C2)C3)c1 | – | inconclusive: -74%
6 | Cc1ccc(-n2c(-c3ccco3)nc3nc4ccccc4nc32)cc1 | – | inconclusive: -1.47%
7 | Cc1ccc(S(=O)(=O)N2CCN(C(=O)[C@H](Cc3ccccc3)NC(=O)c3ccco3)CC2)cc1C | inconclusive: 0.184 µM [falling, full curve, poor fit] | –
8 | Cc1cccn2c(=O)nc(SCC(=O)NCCc3ccccc3)nc12 | – | inconclusive: 9.13%
9 | O=c1[nH]c(CSc2nnc(COc3ccccc3)n2-c2ccccc2)nc2ccccc12 | – | inconclusive: -32.1%
10 | Cc1cccc(NC(=S)NNC(=O)CC(C)O)c1C (stereo unspecified) | – | inconclusive: 8.07%
11 | COc1cc(C(=O)OCC(=O)c2cc(C)n(CC3CCCO3)c2C)cc(OC)c1C (stereo unspecified) | – | inconclusive: 32.1%
12 | Cc1noc(C)c1COC(=O)C1(c2cccc(F)c2)CCCC1 | inconclusive: 18.4 µM [activator, single point] | –
13 | COc1ccc(CC(=O)Nc2sc(Cc3ccccc3)c(C)c2C(N)=O)cc1 | inconclusive: 29.1 µM [falling, single point] | –
14 | CCN1C(=O)c2cccc3c(S(=O)(=O)N(C(=O)c4cccnc4)c4ccc(OC)cc4)ccc1c23 | – | inconclusive: -11.7%
15 | Cc1ccccc1OCC(=O)N(Cc1cccs1)C1CCS(=O)(=O)C1 (stereo unspecified) | – | inconclusive: 21%
16 | CCOc1ccc(-c2nn3c(-c4ccccc4)nnc3s2)cc1 | inconclusive: 0.0291 µM [rising, full curve] | –
17 | COc1cc(/C=C/c2ccc3cccc(O)c3n2)ccc1O | inconclusive: 29.1 µM [falling, single point] | –
18 | CN(C)C(=O)CC12CC3CC(C1)CC(CC(=O)N(C)C)(C3)C2 | – | inconclusive: -20.1%
19 | N#Cc1c(SC(C(=O)O)c2ccccc2)nc2c(c1-c1cccs1)CCCC2 (stereo unspecified) | – | inconclusive: 14.2%
20 | O=C(COC(=O)C1CCN(c2ccc(C(F)(F)F)cn2)CC1)c1ccccc1 | – | inconclusive
21 | COc1ccc(C(NC(C)=O)c2nccc3cc(OC)c(OC)cc23)cc1OC (stereo unspecified) | inconclusive: 7.31 µM [activator, partial curve] | –
22 | CCNc1nc(C#N)nc2c1ncn2-c1cc(F)cc(F)c1 | – | inconclusive: -100%
23 | COc1cccc(NC(=O)C2CCN(S(=O)(=O)c3ccc4c(c3)OCCO4)CC2)c1 | – | inconclusive: 25.9%
24 | CCC/C(O)=C1\C(=O)CC(c2ccccc2)CC1=NC(C)C(=O)O (stereo unspecified) | – | inconclusive: -41.1%
25 | CCCNC(=O)COC(=O)c1cc2c(=O)n3ccccc3nc2s1 | – | inconclusive: 24.4%
26 | CCn1c(SCC(=O)Nc2ccc(OC)cc2)nc2c1c(=O)n(C)c(=O)n2C | – | inconclusive: 57.6%

Row | Structure (SMILES) | Potency | lipid storage change, negative = inhibition
27 | CCC(=O)NC(=S)Nc1ccc(NC(=O)c2ccc(Br)o2)cc1 | – | inactive: -15.2% [at 9.22 µM]
28 | N#C/C=C/N1CCC(Cc2ccccc2)CC1 | – | inconclusive: -109%
29 | O=[N+]([O-])c1ccc(Cl)c(/C=N/N2CCN(Cc3ccccc3)CC2)c1 | – | inactive
30 | Cc1ccnc(NC(=O)C2CCCN(S(=O)(=O)c3ccc4[nH]c(=O)ccc4c3)C2)c1 (stereo unspecified) | inconclusive: 16.4 µM [falling, partial curve, poor fit] | –
31 | CCCNc1c(N)c(=O)c1=O | inconclusive: 5.17 µM [falling, full curve, poor fit] | –
32 | Oc1ccccc1C1=NN(c2ccccc2)C(c2ccc(F)cc2)C1 (stereo unspecified) | – | inconclusive: 9.87%
33 | CC(NC(=O)c1ccco1)C(=O)N1CCN(S(=O)(=O)c2ccccc2C#N)CC1 (stereo unspecified) | inconclusive: 14.6 µM [falling, partial curve, poor fit] | –
34 | O=C(C1CCCCN1S(=O)(=O)c1ccccc1[N+](=O)[O-])N1CCCC1 (stereo unspecified) | – | inconclusive: 56.3%
35 | N#CC1=C(S)N(c2ccccc2)C2(CCCCC2)NC1=O | inconclusive: 20.6 µM [falling, partial curve, poor fit] | –
36 | CCCCC(C)n1[nH]c(=O)cc1N (stereo unspecified) | active: 25.9 µM | –
37 | O=Cc1cn[nH]c1-c1ccccc1 | – | inconclusive: 24.5%
38 | O=C(CCC(=O)OCC(=O)c1ccc(Br)cc1)Nc1cccc2cccnc12 | inconclusive: 5.8 µM [falling, full curve] | –
39 | COc1cc(/C=C2\CCC(C3CCCC3)C2=O)cc(OC)c1OC (stereo unspecified) | inconclusive: 29.1 µM [falling, partial curve, poor fit] | –
40 | Cc1cc(C)n2nc(S(=O)(=O)N(C)Cc3ccccc3)nc2n1 | – | inconclusive: 54.9%
41 | CCCCCn1c(=N)n(CC(O)COc2ccccc2OC)c2ccccc21 (stereo unspecified) | – | inconclusive: -0.108% and inconclusive: -28.9%
42 | COc1ccc(N2Cc3cccc(C(=O)NC(C)CCc4ccco4)c3C2=O)cc1 (stereo unspecified) | – | inconclusive: 62.7% [activator]
43 | O=C(c1ccc(Cl)c(S(=O)(=O)NCc2cccnc2)c1)N1CCCC1 | – | inconclusive: -25.6%
44 | CCCCNC(=O)Nc1nnc(C(C)(C)C)s1 | – | inconclusive: -14.3%
45 | CN(Cc1ccc(C(F)(F)F)cc1)C(=O)C1CCC(=O)N(C2CC2)C1 (stereo unspecified) | inconclusive: 0.58 µM [activator, single point] | –
46 | COc1ccc(N(C)S(=O)(=O)c2ccc3c(c2)CCC(=O)N3)cc1 | – | inconclusive: -7.9%
47 | CC1CCCN(C(=O)c2nn(C)c3c2CSc2ccccc2-3)C1 (stereo unspecified) | – | inconclusive: 7.53%
48 | Cc1ccc(Cn2nc(C)c(NC(=O)c3cc(-c4ccco4)on3)c2C)cc1 | – | inconclusive: 20.7%
49 | O=C(Cn1ccc2ccccc2c1=O)NCCC(=O)Nc1cccnc1 | inconclusive: 29.1 µM [activator, single point] | –
50 | CCc1cc(=O)oc2cc(OCC(=O)N(CC)CC)c(Cl)cc12 | inconclusive: 0.517 µM [activator, full curve] | –
51 | O=C(CSc1nnc(-c2ccccc2O)o1)N1CCOCC1 | – | inconclusive: 17.3%
52 | COC(=O)c1[nH]c2ccc(C)cc2c1NC(=O)Nc1ccccc1OC | inconclusive: 20.6 µM [activator, partial curve] | –

Another view of part of the listing above.
Row,Structure (SMILES),Potency,"lipid storage change, negative = inhibition"
46,COc1ccc(N(C)S(=O)(=O)c2ccc3c(c2)CCC(=O)N3)cc1,–,inconclusive: -7.9%
47,CC1CCCN(C(=O)c2nn(C)c3c2CSc2ccccc2-3)C1 (stereo unspecified),–,inconclusive: 7.53%
48,Cc1ccc(Cn2nc(C)c(NC(=O)c3cc(-c4ccco4)on3)c2C)cc1,–,inconclusive: 20.7%

Another view of 2 compounds above:

| Row | Structure (SMILES) | Potency | lipid storage change, negative = inhibition |
| --- | --- | --- | --- |
| 48 | Cc1ccc(Cn2nc(C)c(NC(=O)c3cc(-c4ccco4)on3)c2C)cc1 | – | inconclusive: 20.7% |
| 49 | O=C(Cn1ccc2ccccc2c1=O)NCCC(=O)Nc1cccnc1 | inconclusive: 29.1 µM [activator, single point] | – |

The listing continues.

Row | Structure (SMILES) | Potency | lipid storage change, negative = inhibition
53 | CC(C)(C)N(CC#CCC(O)(c1ccccc1)C1CCCC1)CCO (stereo unspecified) | – | inconclusive: -17.7%
54 | CCOC(=O)c1cc(C(=O)OCC)c2cccc(C)n2c1=O | – | inconclusive: -10.9%
55 | CCc1nc(Nc2ccc3c(c2)OCO3)c2oc3ccccc3c2n1 | – | inconclusive: -20.4%
56 | CCCCn1c(SCc2cc(=O)n3ccsc3n2)nc2cc(C(=O)OC)ccc2c1=O | – | inconclusive: 14.1%
57 | Cn1c(Oc2ccc(F)cc2)c(C=O)c2ccccc21 | – | inconclusive: 10.3%
58 | COC(=O)c1c(NC(=O)c2ccccc2[N+](=O)[O-])sc2c1CC(C)(C)NC2(C)C | inconclusive: 0.0259 µM [activator, full curve, poor fit] | –
59 | O=C(O)c1n[nH]c2c1CCCCC2 | – | inconclusive: -12.8%
60 | NC(=NCCc1c[nH]c2ccccc12)NS(=O)(=O)c1ccc(F)cc1 | – | inconclusive: 20.2%
61 | Cc1cc(C)n(C(=O)c2ccc(NC(=O)C3CC3)cc2)n1 | inconclusive: 23.1 µM [rising, single point] | –
62 | O=C(CCn1[nH]c(=O)c2ccccc2c1=O)NCCO | active: 11.6 µM | –
63 | CC(C)CN(CC(C)C)S(=O)(=O)N1CCC(C(=O)NCc2ccco2)CC1 | – | inactive
64 | COCC1CCCN(C(=O)c2cc(COc3ccc4ncccc4c3)on2)C1 (stereo unspecified) | inconclusive: 3.26 µM [activator, single point] | –
65 | CCc1ccc(NC2=CC(=O)CC(C)(C)C2)cc1 | active: 16.4 µM | –
66 | COc1ccc2oc(C(=O)OC(C)C(=O)N3CCC(C)CC3)c(C)c2c1 (stereo unspecified) | – | inactive
67 | CCOc1cc(CN2CCN(CCOCCO)CC2)ccc1OC | inconclusive: 29.1 µM [falling, single point] | –
68 | O=C(Nc1ccc(Cl)cc1-c1nc2ccccc2s1)c1ccco1 | inconclusive: 3.66 µM [falling, full curve] | –
69 | COc1ccc(CN(CC(=O)NC2CCCC2)C(=O)CCC(=O)Nc2nccs2)cc1 | – | inconclusive: -9.18%
70 | N#Cc1c2c(c(=S)n(-c3ccccc3)c1N)CCCC2 | – | inconclusive: 8.18%
71 | Cc1cc(-n2cnnn2)ccc1C(C)C | – | inconclusive: 10.5%
72 | Nn1c(SCc2cn3ccccc3n2)nnc1-c1ccncc1 | – | inconclusive: -1.08%
73 | O=S(=O)(c1cnccc1N1CCN(/N=C/c2ccc(Cl)cc2)CC1)N1CCCCC1 | inconclusive: 1.84 µM [activator, full curve] | –
74 | O=C(COc1ccc(/C=N/NC(=O)c2ccc(O)cc2)cc1)Nc1cccc([N+](=O)[O-])c1 | – | inconclusive: -1.71%
75 | CC(=O)c1cccc(NC(=S)N2CCN(S(=O)(=O)c3ccc(F)cc3)CC2)c1 | – | inconclusive: 35.9%
76 | O=C(CN(CC1CCCO1)C(=O)CNS(=O)(=O)c1ccc(Cl)cc1)NCc1ccc(F)cc1 (stereo unspecified) | – | inconclusive: 77.9%
